PubChem BioAssay AID504774 | Drosophila RNAi Screening Center | 2011

- Screen: 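Fly genes whose loss alters survival after alkylation damage to DNA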 (primary screen)
- System: Drosophila Kc167 cells
- Reagents: long dsRNA against Drosophila genes, about 0.25 µg dsRNA per well
- Time to read-out: about 6 days: 3 days knock-down, then 3 days with or without MMS
- Conditions: methyl methanesulphonate 0.004% (w/v) for 3 days after knock-down
- Measurement: 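Viability in wells given MMS, read as ATP luminescence, normalised by quantiles plate by plate and averaged across replicates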
- Reading the numbers: mean viability with MMS and viability with MMS: higher = more surviving cells after MMS
In all, the deposit lists about 23,000 reagents; this is a random part of those with a known target gene and a result. 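Values are quantile-normalised luminescence on an arbitrary scale; higher means more cells surviving MMS.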 No sequences are given here.

| gene | PubChem SID | mean viability with MMS | viability with MMS, replicate 1 | viability with MMS, replicate 2 |
| --- | --- | --- | --- | --- |
| Dgk | SID104184856 | 3.25e6 | 3.76e6 | 3.52e6 |
| Dgk | SID104184857 | 3.60e6 | 4.24e6 | 3.94e6 |
| Dgk | SID104185963 | 3.64e6 | 4.13e6 | 4.05e6 |
| Dgk | SID104186574 | 3.82e6 | 4.07e6 | 4.06e6 |
| Dgk | SID104201763 | 2.50e6 | 3.65e6 | 3.65e6 |
| CG8195 | SID104186895 | 3.74e6 | 4.27e6 | 4.20e6 |
| vri | SID104183425 | 2.74e6 | 3.23e6 | 3.28e6 |
| vri | SID104202531 | 3.61e6 | 4.18e6 | 4.02e6 |
| RpS14b | SID104198503 | 2.86e6 | 3.37e6 | 3.51e6 |
| CG12241 | SID104194273 | 3.63e6 | 4.21e6 | 4.05e6 |
| Hrd3 | SID104193948 | 3.30e6 | 3.75e6 | 3.75e6 |
| CG3257 | SID104184143 | 3.57e6 | 4.12e6 | 4.10e6 |
| spoon | SID104198091 | 3.63e6 | 4.31e6 | 4.00e6 |
| promL | SID104188525 | 3.71e6 | 4.32e6 | 4.11e6 |
| CG17717 | SID104197922 | 3.55e6 | 3.92e6 | 4.14e6 |
| CG7110 | SID104182803 | 3.48e6 | 4.04e6 | 3.85e6 |
| CG7110 | SID104182804 | 3.54e6 | 4.08e6 | 3.96e6 |
| CG8927 | SID104196250 | 3.50e6 | 3.93e6 | 4.00e6 |
| Slob (retired record) | SID104183228 | 3.63e6 | 4.11e6 | 4.13e6 |
| CG15308 | SID104197787 | 3.60e6 | 4.01e6 | 4.13e6 |
| Cyp6a22 | SID104187174 | 3.43e6 | 3.85e6 | 3.90e6 |
| RNaseP:RNA | SID104202324 | 3.56e6 | 3.93e6 | 4.10e6 |
| Scgbeta | SID104195646 | 3.70e6 | 4.12e6 | 4.15e6 |
| Sidpn | SID104181848 | 3.79e6 | 4.12e6 | 4.49e6 |
| Sting | SID104186407 | 3.57e6 | 4.01e6 | 4.07e6 |
| eIF4E1 | SID104191134 | 3.09e6 | 3.64e6 | 3.59e6 |
| FANCI | SID104186208 | 3.61e6 | 4.08e6 | 4.06e6 |
| mRpL32 | SID104194271 | 3.39e6 | 3.88e6 | 3.74e6 |
| Ubx | SID104196683 | 3.68e6 | 4.25e6 | 4.13e6 |
| CG1317 | SID104188097 | 3.51e6 | 3.98e6 | 3.99e6 |
| Vps36 | SID104189577 | 3.41e6 | 3.73e6 | 3.96e6 |
| Gbeta76C | SID104190966 | 3.53e6 | 3.96e6 | 4.02e6 |
| CG17224 | SID104180281 | 3.75e6 | 4.43e6 | 3.94e6 |
| mdlc | SID104195482 | 3.39e6 | 3.85e6 | 3.83e6 |
| l(2)k09848 | SID104184686 | 3.38e6 | 3.89e6 | 3.70e6 |
| CG32061 | SID104202020 | 3.68e6 | 4.19e6 | 4.05e6 |
| smg | SID104191189 | 3.59e6 | 4.16e6 | 4.00e6 |
| Spps | SID104195648 | 3.31e6 | 3.76e6 | 3.77e6 |
| Spps | SID104202563 | 3.76e6 | 4.11e6 | 4.40e6 |
| COX7B | SID104190687 | 3.43e6 | 3.85e6 | 3.89e6 |
| CG33189 | SID104201175 | 3.61e6 | 4.06e6 | 4.12e6 |
| CG2616 | SID104195232 | 3.46e6 | 3.97e6 | 3.90e6 |
| a5 | SID104180590 | 3.55e6 | 4.14e6 | 3.93e6 |
| Z600 | SID104191109 | 3.57e6 | 4.02e6 | 4.08e6 |
| CG9083 | SID104184417 | 3.58e6 | 4.01e6 | 4.15e6 |
| CG9040 | SID104190845 | 3.33e6 | 3.85e6 | 3.63e6 |

Entries above whose target name starts with S or s (8):
| gene | PubChem SID | mean viability with MMS | viability with MMS, replicate 1 | viability with MMS, replicate 2 |
| --- | --- | --- | --- | --- |
| spoon | SID104198091 | 3.63e6 | 4.31e6 | 4.00e6 |
| Slob (retired record) | SID104183228 | 3.63e6 | 4.11e6 | 4.13e6 |
| Scgbeta | SID104195646 | 3.70e6 | 4.12e6 | 4.15e6 |
| Sidpn | SID104181848 | 3.79e6 | 4.12e6 | 4.49e6 |
| Sting | SID104186407 | 3.57e6 | 4.01e6 | 4.07e6 |
| smg | SID104191189 | 3.59e6 | 4.16e6 | 4.00e6 |
| Spps | SID104195648 | 3.31e6 | 3.76e6 | 3.77e6 |
| Spps | SID104202563 | 3.76e6 | 4.11e6 | 4.40e6 |
